Measured values taken from the supplement of paper PMC6078165.
The reference is the same well before dosing, and untreated signal decays as well.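 Fibroblast labels name human fibroblasts: mostly primary ones from tissues such as uterus (C12385, HUF), lung (H6013), bone (Hs27A), adrenal (HADF) and skin (WS1), plus mammary HMF and breast cancer-associated Hs343T. The cancer cells are basal-like or mesenchymal-like triple-negative breast cancer lines. The paper calls a changed response a hit when it shifts by more than 3x the replicate standard deviation. The tissue of the other fibroblasts is not given here.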

System: Hs578T
Assay: relative JC-1 red fluorescence (viability) vs pre-drug, coculture with fibroblast (fraction); higher = more viable cancer cells
Description: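 JC-1 labelled TNBC cells cocultured 1:1 (1,500 cells each) with CellTrace Violet stained primary or stromal fibroblasts in 384-well plates in FluoroBrite medium, treated with one of 42 anticancer drugs at 0.1, 1, 10 or 100 uM. JC-1 red fluorescence (mitochondrial integrity in cancer cells only) was read by plate reader every 8 h for 72 h. Values are normalised to each well's pre-drug value. The stock of one drug was tenfold lower, so its dose labels may be too high.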

CCC1=C[C@@H]2CN(C1)Cc1c([nH]c3ccccc13)[C@@](C(=O)OC)(c1cc3c(cc1OC)N(C)[C@H]1[C@@](O)(C(=O)OC)[C@H](OC(C)=O)[C@]4(CC)C=CCN5CC[C@]31[C@@H]54)C2 [Vinorelbine]
relative JC-1 red fluorescence
Conditions | 8 h | 16 h | 24 h | 32 h | 40 h | 48 h | 56 h | 64 h | 72 h
0.1 µM | 0.94 | 0.819 | 0.753 | 0.686 | 0.589 | 0.54 | 0.5154 | 0.4735 | 0.471
1 µM | 0.902 | 0.806 | 0.747 | 0.69 | 0.618 | 0.563 | 0.548 | 0.501 | 0.487

relative JC-1 red fluorescence
Conditions | 8 h | 16 h | 24 h | 32 h | 40 h | 48 h | 56 h | 64 h | 72 h
0.1 µM, coculture fibroblast: C12385 | 0.837 | 0.675 | 0.631 | 0.517 | 0.453 | 0.425 | 0.4 | 0.405 | 0.408
0.1 µM, coculture fibroblast: H6013 | 0.89 | 0.7845 | 0.74199 | 0.702 | 0.655 | 0.65 | 0.633 | 0.6333 | 0.6208
0.1 µM, coculture fibroblast: H6019 | 0.821 | 0.705 | 0.703 | 0.61 | 0.5756 | 0.551 | 0.538 | 0.5478 | 0.5428
0.1 µM, coculture fibroblast: H6076 | 0.846 | 0.778 | 0.718 | 0.699 | 0.657 | 0.659 | 0.663 | 0.665 | 0.68
0.1 µM, coculture fibroblast: H6231 | 0.948 | 0.864 | 0.722 | 0.664 | 0.581 | 0.544 | 0.5 | 0.48 | 0.472
0.1 µM, coculture fibroblast: HADF | 0.9132 | 0.798 | 0.746 | 0.675 | 0.628 | 0.594 | 0.559 | 0.555 | 0.535
0.1 µM, coculture fibroblast: HCFa | 0.881 | 0.7785 | 0.70708 | 0.608 | 0.525 | 0.491 | 0.459 | 0.438 | 0.411
0.1 µM, coculture fibroblast: HCPF | 0.957 | 0.863 | 0.78 | 0.711 | 0.592 | 0.55 | 0.505 | 0.463 | 0.437
0.1 µM, coculture fibroblast: HHSteC | 0.945 | 0.873 | 0.872 | 0.839 | 0.82 | 0.807 | 0.805 | 0.798 | 0.776
0.1 µM, coculture fibroblast: HMF | 0.841 | 0.759 | 0.71 | 0.677 | 0.582 | 0.553 | 0.521 | 0.507 | 0.511
0.1 µM, coculture fibroblast: HPFa | 0.9021 | 0.8305 | 0.735 | 0.629 | 0.563 | 0.524 | 0.487 | 0.468 | 0.43
0.1 µM, coculture fibroblast: HUF | 0.909 | 0.743 | 0.742 | 0.639 | 0.567 | 0.54 | 0.519 | 0.522 | 0.526
0.1 µM, coculture fibroblast: Hs27A | 0.9261 | 0.8876 | 0.819 | 0.764 | 0.6949 | 0.673 | 0.636 | 0.631 | 0.594
0.1 µM, coculture fibroblast: Hs343T | 0.9226 | 0.772 | 0.699 | 0.655 | 0.569 | 0.5387 | 0.497 | 0.489 | 0.493
0.1 µM, coculture fibroblast: WS1 | 0.81 | 0.706 | 0.651 | 0.531 | 0.476 | 0.462 | 0.434 | 0.441 | 0.444
1 µM, coculture fibroblast: C12385 | 0.821 | 0.718 | 0.684 | 0.572 | 0.51 | 0.474 | 0.446 | 0.438 | 0.443
1 µM, coculture fibroblast: H6013 | 0.912 | 0.881 | 0.842 | 0.804 | 0.763 | 0.754 | 0.731 | 0.728 | 0.695
1 µM, coculture fibroblast: H6019 | 0.7929 | 0.703 | 0.67122 | 0.568 | 0.517 | 0.484 | 0.452 | 0.443 | 0.427
1 µM, coculture fibroblast: H6076 | 0.857 | 0.883 | 0.824 | 0.754 | 0.661 | 0.624 | 0.597 | 0.574 | 0.571
1 µM, coculture fibroblast: H6231 | 0.934 | 0.857 | 0.74 | 0.655 | 0.559 | 0.516 | 0.462 | 0.427 | 0.405
1 µM, coculture fibroblast: HADF | 0.892 | 0.906 | 0.855 | 0.77 | 0.693 | 0.652 | 0.611 | 0.596 | 0.56
1 µM, coculture fibroblast: HCFa | 0.8524 | 0.826 | 0.771 | 0.674 | 0.594 | 0.566 | 0.532 | 0.512 | 0.477
1 µM, coculture fibroblast: HCPF | 0.957 | 0.857 | 0.812 | 0.753 | 0.677 | 0.646 | 0.629 | 0.591 | 0.581
1 µM, coculture fibroblast: HHSteC | 0.9147 | 0.836 | 0.778 | 0.699 | 0.636 | 0.599 | 0.574 | 0.553 | 0.527
1 µM, coculture fibroblast: HMF | 0.938 | 0.869 | 0.805 | 0.737 | 0.643 | 0.589 | 0.549 | 0.513 | 0.502
1 µM, coculture fibroblast: HPFa | 0.946 | 0.89 | 0.801 | 0.734 | 0.673 | 0.637 | 0.588 | 0.563 | 0.534
1 µM, coculture fibroblast: HUF | 0.906 | 0.799 | 0.7905 | 0.6767 | 0.6115 | 0.573 | 0.536 | 0.532 | 0.528
1 µM, coculture fibroblast: Hs27A | 0.952 | 0.92 | 0.85 | 0.79 | 0.736 | 0.7182 | 0.68312 | 0.6755 | 0.6342
1 µM, coculture fibroblast: Hs343T | 0.934 | 0.796 | 0.754 | 0.7025 | 0.605 | 0.5622 | 0.5275 | 0.5023 | 0.506
1 µM, coculture fibroblast: WS1 | 0.808 | 0.702 | 0.653 | 0.529 | 0.469 | 0.444 | 0.415 | 0.413 | 0.409
